Test results as given in the supplement of paper PMC10849652.
The other results are listed elsewhere or left out.

The chains behind the UniProt entries cited, without tags or fusion partners. Where a name states a change or a piece, a line headed by the entry shows the natural chain unless it says otherwise.
UniProt Q96KC2: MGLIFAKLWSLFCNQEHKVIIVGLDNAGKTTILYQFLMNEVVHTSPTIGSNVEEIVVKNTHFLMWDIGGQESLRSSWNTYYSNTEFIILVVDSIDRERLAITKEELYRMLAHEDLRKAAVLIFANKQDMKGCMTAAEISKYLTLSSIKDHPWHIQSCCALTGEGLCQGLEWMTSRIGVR
UniProt Q8N2F6: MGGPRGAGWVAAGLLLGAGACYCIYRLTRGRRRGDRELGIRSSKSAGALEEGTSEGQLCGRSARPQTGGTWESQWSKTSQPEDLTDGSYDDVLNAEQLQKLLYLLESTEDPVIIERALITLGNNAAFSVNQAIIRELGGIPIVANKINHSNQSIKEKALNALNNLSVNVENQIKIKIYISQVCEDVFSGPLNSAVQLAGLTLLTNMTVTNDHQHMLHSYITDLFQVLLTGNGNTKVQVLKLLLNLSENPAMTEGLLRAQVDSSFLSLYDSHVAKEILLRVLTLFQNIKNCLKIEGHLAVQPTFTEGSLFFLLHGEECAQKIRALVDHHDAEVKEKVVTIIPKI
UniProt Q8IUR7, whole entry, looked up: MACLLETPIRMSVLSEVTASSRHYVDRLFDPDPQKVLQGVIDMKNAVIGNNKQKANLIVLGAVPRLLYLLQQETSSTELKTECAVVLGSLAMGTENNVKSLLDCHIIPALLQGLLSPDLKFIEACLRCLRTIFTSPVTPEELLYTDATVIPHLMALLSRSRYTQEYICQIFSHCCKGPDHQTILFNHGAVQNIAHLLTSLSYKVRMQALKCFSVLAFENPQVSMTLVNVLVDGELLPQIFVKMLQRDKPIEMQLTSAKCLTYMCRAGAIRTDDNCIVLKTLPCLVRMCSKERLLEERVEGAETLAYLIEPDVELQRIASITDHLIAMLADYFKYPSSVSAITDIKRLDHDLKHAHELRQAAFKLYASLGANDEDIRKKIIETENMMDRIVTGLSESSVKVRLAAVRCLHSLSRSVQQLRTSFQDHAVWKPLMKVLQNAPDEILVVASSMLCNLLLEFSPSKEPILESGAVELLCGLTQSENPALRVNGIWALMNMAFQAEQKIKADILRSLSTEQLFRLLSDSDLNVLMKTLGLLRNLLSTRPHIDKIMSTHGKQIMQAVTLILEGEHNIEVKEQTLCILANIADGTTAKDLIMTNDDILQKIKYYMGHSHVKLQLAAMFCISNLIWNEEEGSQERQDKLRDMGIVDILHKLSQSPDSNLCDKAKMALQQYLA
UniProt Q6P4H8: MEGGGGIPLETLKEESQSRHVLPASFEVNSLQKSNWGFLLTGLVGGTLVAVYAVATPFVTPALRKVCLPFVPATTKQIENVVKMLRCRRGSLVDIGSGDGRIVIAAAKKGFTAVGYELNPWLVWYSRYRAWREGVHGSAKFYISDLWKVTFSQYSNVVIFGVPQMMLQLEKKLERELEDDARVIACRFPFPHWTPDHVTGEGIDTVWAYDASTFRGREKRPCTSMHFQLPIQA
UniProt Q93050, whole entry, looked up: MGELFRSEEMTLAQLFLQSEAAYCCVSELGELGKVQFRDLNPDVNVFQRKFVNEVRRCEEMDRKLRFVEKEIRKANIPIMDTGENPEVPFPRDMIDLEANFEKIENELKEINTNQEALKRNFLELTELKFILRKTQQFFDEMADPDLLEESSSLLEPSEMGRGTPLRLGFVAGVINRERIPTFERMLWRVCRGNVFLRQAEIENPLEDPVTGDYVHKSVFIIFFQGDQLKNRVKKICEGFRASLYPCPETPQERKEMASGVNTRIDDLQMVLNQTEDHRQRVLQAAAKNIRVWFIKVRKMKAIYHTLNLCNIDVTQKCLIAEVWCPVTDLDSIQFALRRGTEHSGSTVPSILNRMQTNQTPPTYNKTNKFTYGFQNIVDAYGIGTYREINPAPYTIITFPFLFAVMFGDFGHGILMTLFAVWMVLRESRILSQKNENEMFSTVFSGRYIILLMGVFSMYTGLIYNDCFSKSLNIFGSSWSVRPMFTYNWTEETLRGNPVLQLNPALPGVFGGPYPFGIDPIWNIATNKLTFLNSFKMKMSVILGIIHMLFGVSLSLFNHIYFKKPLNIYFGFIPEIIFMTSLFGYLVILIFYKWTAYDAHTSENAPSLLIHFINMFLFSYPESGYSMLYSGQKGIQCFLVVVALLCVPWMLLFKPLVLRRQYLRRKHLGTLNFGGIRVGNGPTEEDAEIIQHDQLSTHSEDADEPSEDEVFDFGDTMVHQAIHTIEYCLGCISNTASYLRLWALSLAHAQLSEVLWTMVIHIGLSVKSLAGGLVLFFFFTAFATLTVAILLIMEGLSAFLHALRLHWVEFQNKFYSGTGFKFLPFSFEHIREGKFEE
UniProt Q9H0Y0: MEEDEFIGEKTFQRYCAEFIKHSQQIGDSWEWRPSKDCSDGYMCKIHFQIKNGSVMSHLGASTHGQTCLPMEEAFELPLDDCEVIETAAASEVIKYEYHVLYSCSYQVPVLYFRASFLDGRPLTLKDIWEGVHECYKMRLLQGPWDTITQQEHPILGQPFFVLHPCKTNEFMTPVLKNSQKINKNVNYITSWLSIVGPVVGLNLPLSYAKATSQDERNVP
UniProt Q3SXY8: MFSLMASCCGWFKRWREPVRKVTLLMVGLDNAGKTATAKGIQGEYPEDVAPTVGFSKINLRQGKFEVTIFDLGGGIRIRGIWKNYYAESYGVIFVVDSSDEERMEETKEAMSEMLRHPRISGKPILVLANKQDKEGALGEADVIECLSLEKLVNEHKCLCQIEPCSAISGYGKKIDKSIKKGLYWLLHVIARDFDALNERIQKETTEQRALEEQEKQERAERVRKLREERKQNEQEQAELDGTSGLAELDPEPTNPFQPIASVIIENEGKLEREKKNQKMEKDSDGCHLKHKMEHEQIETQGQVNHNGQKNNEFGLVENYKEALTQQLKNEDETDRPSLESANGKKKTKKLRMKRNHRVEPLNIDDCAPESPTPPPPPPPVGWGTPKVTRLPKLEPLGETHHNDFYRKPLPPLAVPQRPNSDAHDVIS
UniProt P40617: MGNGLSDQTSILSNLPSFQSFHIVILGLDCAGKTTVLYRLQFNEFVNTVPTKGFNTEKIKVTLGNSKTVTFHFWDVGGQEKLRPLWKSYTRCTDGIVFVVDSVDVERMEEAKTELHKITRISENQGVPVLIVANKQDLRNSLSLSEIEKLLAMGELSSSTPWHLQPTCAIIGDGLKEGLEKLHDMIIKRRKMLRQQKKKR
UniProt Q8WYN0: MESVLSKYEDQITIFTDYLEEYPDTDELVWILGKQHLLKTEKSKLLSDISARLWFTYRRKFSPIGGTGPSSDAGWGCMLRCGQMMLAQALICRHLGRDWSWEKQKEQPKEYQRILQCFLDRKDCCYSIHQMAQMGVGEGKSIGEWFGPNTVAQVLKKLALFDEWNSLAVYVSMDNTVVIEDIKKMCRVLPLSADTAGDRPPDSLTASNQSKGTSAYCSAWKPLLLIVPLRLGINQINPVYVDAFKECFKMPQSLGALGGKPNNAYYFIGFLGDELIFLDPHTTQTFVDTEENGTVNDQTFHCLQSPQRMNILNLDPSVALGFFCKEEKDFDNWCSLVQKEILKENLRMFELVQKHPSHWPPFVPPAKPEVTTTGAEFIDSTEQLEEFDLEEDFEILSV
UniProt Q9Y689: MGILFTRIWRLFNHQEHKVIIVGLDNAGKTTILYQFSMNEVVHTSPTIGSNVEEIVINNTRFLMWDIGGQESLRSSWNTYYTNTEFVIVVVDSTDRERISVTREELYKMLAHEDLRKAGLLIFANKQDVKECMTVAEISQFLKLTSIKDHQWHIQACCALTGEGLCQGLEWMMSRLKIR
UniProt P98194: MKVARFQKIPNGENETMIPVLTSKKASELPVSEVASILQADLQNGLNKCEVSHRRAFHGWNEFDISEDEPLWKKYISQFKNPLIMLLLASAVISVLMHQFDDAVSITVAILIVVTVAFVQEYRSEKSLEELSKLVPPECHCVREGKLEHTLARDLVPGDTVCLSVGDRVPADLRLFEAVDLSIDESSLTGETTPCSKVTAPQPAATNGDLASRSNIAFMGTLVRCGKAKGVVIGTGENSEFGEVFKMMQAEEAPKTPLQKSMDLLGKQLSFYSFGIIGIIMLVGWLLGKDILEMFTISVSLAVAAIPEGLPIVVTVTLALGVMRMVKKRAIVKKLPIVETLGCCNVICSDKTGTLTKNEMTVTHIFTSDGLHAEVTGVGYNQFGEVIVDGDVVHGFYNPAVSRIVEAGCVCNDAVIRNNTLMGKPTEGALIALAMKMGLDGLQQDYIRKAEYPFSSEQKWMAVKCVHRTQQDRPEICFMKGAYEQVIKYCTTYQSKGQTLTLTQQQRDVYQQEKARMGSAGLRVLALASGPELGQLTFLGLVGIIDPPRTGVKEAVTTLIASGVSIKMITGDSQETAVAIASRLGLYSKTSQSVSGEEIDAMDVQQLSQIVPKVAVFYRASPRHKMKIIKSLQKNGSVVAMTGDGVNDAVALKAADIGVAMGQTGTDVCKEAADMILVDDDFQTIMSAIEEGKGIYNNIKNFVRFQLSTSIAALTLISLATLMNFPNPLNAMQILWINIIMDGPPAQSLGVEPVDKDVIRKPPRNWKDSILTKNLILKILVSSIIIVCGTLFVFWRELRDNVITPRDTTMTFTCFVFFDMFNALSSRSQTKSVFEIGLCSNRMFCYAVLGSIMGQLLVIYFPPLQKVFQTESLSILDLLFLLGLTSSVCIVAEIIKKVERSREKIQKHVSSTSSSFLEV
UniProt P18847: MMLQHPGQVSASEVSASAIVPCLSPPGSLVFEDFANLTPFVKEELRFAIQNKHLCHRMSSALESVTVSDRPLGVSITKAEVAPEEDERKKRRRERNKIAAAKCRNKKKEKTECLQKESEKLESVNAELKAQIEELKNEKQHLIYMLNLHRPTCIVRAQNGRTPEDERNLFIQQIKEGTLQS
UniProt Q8IXJ9: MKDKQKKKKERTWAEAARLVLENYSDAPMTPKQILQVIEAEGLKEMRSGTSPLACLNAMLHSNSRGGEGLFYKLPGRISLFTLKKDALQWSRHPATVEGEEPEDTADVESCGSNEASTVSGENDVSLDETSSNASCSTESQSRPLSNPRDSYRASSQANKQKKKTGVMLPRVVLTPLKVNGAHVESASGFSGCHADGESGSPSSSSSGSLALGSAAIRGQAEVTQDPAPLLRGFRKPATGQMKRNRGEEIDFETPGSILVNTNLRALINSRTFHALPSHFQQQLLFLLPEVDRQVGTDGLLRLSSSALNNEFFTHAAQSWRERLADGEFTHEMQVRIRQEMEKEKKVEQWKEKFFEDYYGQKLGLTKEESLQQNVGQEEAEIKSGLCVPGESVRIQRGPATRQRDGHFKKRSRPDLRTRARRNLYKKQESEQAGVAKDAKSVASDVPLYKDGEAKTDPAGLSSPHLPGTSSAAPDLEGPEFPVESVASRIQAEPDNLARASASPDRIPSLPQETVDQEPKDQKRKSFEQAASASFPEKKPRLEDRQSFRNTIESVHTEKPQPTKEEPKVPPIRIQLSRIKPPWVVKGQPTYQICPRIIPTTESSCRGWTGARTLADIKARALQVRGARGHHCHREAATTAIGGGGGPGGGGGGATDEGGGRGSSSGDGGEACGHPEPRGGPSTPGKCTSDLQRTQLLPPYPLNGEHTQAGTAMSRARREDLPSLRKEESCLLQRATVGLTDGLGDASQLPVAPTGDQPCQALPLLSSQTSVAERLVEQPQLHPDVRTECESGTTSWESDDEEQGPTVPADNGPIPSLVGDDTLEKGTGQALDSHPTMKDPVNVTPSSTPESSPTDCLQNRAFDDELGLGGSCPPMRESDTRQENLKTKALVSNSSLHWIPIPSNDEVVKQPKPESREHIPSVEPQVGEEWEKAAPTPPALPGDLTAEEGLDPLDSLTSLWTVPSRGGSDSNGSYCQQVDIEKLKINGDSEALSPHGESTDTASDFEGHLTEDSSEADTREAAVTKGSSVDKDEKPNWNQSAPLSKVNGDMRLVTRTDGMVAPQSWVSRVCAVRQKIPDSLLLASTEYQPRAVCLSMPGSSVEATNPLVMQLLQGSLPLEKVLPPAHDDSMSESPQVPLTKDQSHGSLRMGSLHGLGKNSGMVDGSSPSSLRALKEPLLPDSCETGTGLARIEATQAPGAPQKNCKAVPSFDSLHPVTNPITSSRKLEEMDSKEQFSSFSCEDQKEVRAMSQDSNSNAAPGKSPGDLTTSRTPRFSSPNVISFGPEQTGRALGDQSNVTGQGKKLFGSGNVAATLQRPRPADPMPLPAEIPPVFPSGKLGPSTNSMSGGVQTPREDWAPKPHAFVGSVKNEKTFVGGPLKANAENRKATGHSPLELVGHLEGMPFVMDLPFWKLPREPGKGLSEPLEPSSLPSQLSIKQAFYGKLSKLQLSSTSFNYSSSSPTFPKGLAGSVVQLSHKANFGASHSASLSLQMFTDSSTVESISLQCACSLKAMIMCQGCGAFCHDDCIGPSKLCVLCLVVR
UniProt O94817, whole entry, looked up: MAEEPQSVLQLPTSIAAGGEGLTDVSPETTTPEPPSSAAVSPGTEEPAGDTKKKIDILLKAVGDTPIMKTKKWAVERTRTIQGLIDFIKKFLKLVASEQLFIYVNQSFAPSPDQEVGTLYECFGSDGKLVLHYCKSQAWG

Experiments:
Experiment in all cases: log2 fold change, soluble protein after heating vs DMSO (PISA); higher = thermal stabilisation; K562 cells, 10 uM, 30 min; active = over 0.2 and 3.5 SD of the protein, either way, in both replicates (recomputed)
[1] = compound: CC1=C(C=C(C=C1)NC(=O)C2=CC(=CC=C2)C(C)(C)C#N)NC3=CC4=C(C=C3)N=CN(C4=O)C
Method in brief: (§1)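 K562 cells at 2×10^6 cells/mL were exposed to 10 μM compound for 30 min, then aliquots were heated for 3 min across 48°C-58°C, pooled, and extracted in PBS containing 0.5% NP-40 at 4°C. The supernatant after 21,000xg for 90 min was taken as soluble protein and measured by TMTpro 16plex LC-MS/MS with channel sums equalised. Thermal stability is reported relative to control samples, with values from duplicates. Fold changes are given on a log2 scale.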

[2] = compound: CC1=CC=C(C=C1)SC2=C3C=C(SC3=CN=C2)C(=O)N
Method in brief: as §1

[3] = compound: CCCCN(Cc1ccc(C(=O)NO)cc1)C(=O)Nc1ccccc1 [Nexturastat A]
Method in brief: as §1

[4] = compound: CCCS(=O)(=O)Nc1ccc(F)c(C(=O)c2c[nH]c3ncc(-c4ccc(Cl)cc4)cc23)c1F [vemurafenib]
Method in brief: as §1

[5] = compound: CCCS(=O)(=O)Nc1ccc(F)c(C(=O)c2c[nH]c3ncc(Cl)cc23)c1F
Method in brief: as §1

[6] = compound: CCCc1cc(C)[nH]c(=O)c1CNC(=O)c1cc(-c2ccnc(N3CCN(C)CC3)c2)cc2c1cnn2C(C)C
Method in brief: as §1

[7] = compound: CCN(CC)Cc1ccc2cc(COC(=O)Nc3ccc(C(=O)NO)cc3)ccc2c1 [givinostat]
Method in brief: as §1

[8] = compound: CCN(CCCOc1ccc2c(Nc3cc(CC(=O)Nc4cccc(F)c4)[nH]n3)ncnc2c1)CCOP(=O)(O)O [barasertib]
Method in brief: as §1

[9] = compound: CC1=C(C=C(C=C1)NC(=O)C2=CC(=CC=C2)N(C)C)NC(=O)C3=CC=C(C=C3)O
Method in brief: as §1

[10] = compound: CC1=NC(=CC=C1)C2=C(N=C(N2)C(C)(C)C)C3=CC4=NC=CN=C4C=C3
Method in brief: as §1

Measured: log2 fold change

ARL5B (UniProt Q96KC2)
inactive: [1] 0.121 | [2] -0.079 | [3] -0.06 | [4] 0.03 | [5] -0.038 | [6] -0.003 | [7] 0.086 | [8] 0.093

ARMC10 (UniProt Q8N2F6)
inactive: [1] 0.03 | [9] -0.087 | [2] -0.019 | [10] -0.046 | [3] 0.056 | [4] 0.12 | [5] 0.074 | [6] 0.072 | [7] 0.063 | [8] 0.019

ASCC3 (UniProt Q8N3C0)
inactive: [1] -0.155 | [9] 0.046 | [2] -0.079 | [10] -0.282 | [3] 0.472 | [4] -0.164 | [5] 0.005 | [6] -0.27 | [7] 0.196 | [8] -0.168

ARMC8 isoform 6 (UniProt Q8IUR7)
inactive: [4] 0.031 | [7] 0.075 | [8] -0.021

ASCC2 (UniProt Q9H1I8)
inactive: [1] -0.039 | [9] -0.168 | [10] -0.046 | [3] 0.054 | [4] -0.138 | [6] 0.073 | [7] 0.211

ATP6V1H (UniProt Q9UI12)
inactive: [1] 0.028 | [9] -0.016 | [2] 0.045 | [10] 0.014 | [3] -0.008 | [4] -0.004 | [5] 0.077 | [6] 0.022 | [7] 0.03 | [8] 0.018

ATPSCKMT (UniProt Q6P4H8)
inactive: [1] 0.118 | [2] 0.088 | [3] -0.173 | [4] 0.005 | [5] 0.001 | [6] -0.073 | [7] -0.115 | [8] -0.025

ATP5F1B (UniProt F8W0P7)
inactive: [1] 0.147 | [9] -0.051 | [2] 0.027 | [10] -0.012 | [3] -0.118 | [5] -0.151 | [6] 0.036 | [8] -0.23

ATP6V0A1 (UniProt Q93050)
inactive: [8] -0.095

ASPM (UniProt Q8IZT6)
inactive: [1] -0.031 | [9] -0.027 | [2] -0.003 | [10] 0.021 | [3] -0.128 | [4] 0.005 | [5] 0 | [6] 0.063 | [7] -0.084 | [8] 0.026

ATG10 (UniProt Q9H0Y0)
inactive: [3] -0.038 | [4] -0.085 | [7] -0.002 | [8] 0.037

ATG14 (UniProt Q6ZNE5)
inactive: [1] -0.075 | [2] 0.14 | [5] 0.111 | [7] 0.068 | [8] -0.041

ATE1 (UniProt O95260)
inactive: [2] -0.119 | [10] 0.049 | [3] 0.095 | [4] 0.018 | [5] -0.085

ATP2B2 (UniProt Q01814)
inactive: [1] 0.245 | [2] 0.098 | [4] -0.069 | [5] 0.028 | [7] 0.015

ARL13B (UniProt Q3SXY8)
inactive: [1] 0.048 | [9] 0.045 | [10] 0.053 | [3] 0.115 | [4] 0.04 | [6] -0.033 | [7] 0.026 | [8] -0.01

ATP8B2 isoform 3 (UniProt P98198)
inactive: [4] 0.095

ARMC8 (UniProt Q8IUR7)
inactive: [1] 0.017 | [9] 0.039 | [2] -0.049 | [10] 0.006 | [3] -0.002 | [4] -0.017 | [5] 0.027 | [6] 0.065 | [7] 0 | [8] -0.025

ARL4A (UniProt P40617)
inactive: [6] 0.078 | [8] 0.057

ARL6 isoform 2 (UniProt Q9H0F7)
inactive: [9] -0.007 | [4] -0.029

ARRB1 isoform 2 (UniProt P49407)
inactive: [9] 0.031 | [2] -0.1 | [10] -0.015 | [4] -0.018 | [5] 0.006 | [6] 0.004 | [7] 0.12 | [8] 0.046

ATP6V0C (UniProt P27449)
inactive: [1] 0.219 | [2] 0.023 | [3] -0.074 | [4] -0.156 | [5] 0.072 | [6] 0.098 | [7] 0.092 | [8] -0.025

ARPIN isoform 2 (UniProt Q7Z6K5)
inactive: [9] -0.054 | [2] 0.009 | [10] 0.141 | [4] -0.04 | [5] 0.06 | [6] 0 | [7] -0.008 | [8] 0.035

ASXL2 (UniProt Q76L83)
inactive: [7] 0.016

Looked up one by one from the entries so far, 3 records:
ARPIN isoform 2 (UniProt Q7Z6K5)
inactive: [9] -0.054 | [2] 0.009 | [10] 0.141 | [4] -0.04 | [5] 0.06 | [6] 0 | [7] -0.008 | [8] 0.035

ARRB1 isoform 2 (UniProt P49407)
inactive: [9] 0.031 | [2] -0.1 | [10] -0.015 | [4] -0.018 | [5] 0.006 | [6] 0.004 | [7] 0.12 | [8] 0.046

ARL4A (UniProt P40617)
inactive: [6] 0.078 | [8] 0.057

(list continues)

ATG4A (UniProt Q8WYN0)
inactive: [4] 0.344

ARL5A (UniProt Q9Y689)
inactive: [1] -0.076 | [9] 0.043 | [2] 0.033 | [10] 0.017 | [3] -0.019 | [5] 0.047 | [6] -0.069 | [7] -0.033 | [8] 0.023

ASS1 (UniProt P00966)
inactive: [1] -0.073 | [9] -0.015 | [2] -0.06 | [3] 0.023 | [4] -0.042 | [5] 0.003 | [6] 0.004 | [7] 0.031 | [8] -0.063

ASNSD1 (UniProt Q9NWL6)
inactive: [1] -0.01 | [10] -0.068 | [3] -0.202 | [8] 0.152

ATP5F1B (UniProt H0YI37)
inactive: [1] -0.234 | [2] -0.314 | [3] 0.159 | [4] -0.114 | [5] -0.352 | [8] -0.015

ATM (UniProt Q13315)
inactive: [1] -0.049 | [9] -0.055 | [2] 0.131 | [10] -0.032 | [3] -0.027 | [4] 0.009 | [5] 0.002 | [6] 0.05 | [7] 0.019 | [8] 0.004

ARSK (UniProt Q6UWY0)
inactive: [10] -0.023 | [3] -0.217 | [4] -0.028 | [6] -0.039 | [7] -0.051 | [8] -0.182

ATP1B1 (UniProt P05026)
inactive: [1] -0.053 | [9] -0.044 | [2] 0.061 | [10] 0.037 | [4] -0.053 | [5] -0.053 | [6] -0.264 | [7] -0.042 | [8] -0.074

ATP2C1 isoform 3 (UniProt P98194)
inactive: [2] -0.009 | [5] 0.02 | [6] 0.095 | [7] -0.036 | [8] 0.098

ATF3 (UniProt P18847)
inactive: [1] 0.075 | [9] 0.033 | [2] -0.151 | [3] 0.011 | [4] -0.05 | [5] 0 | [7] 0.048 | [8] 0.09

ASXL1 (UniProt Q8IXJ9)
inactive: [1] 0.139 | [2] -0.095 | [3] -0.211 | [5] -0.244 | [6] 0.095 | [7] 0.06 | [8] -0.004

ASAH1 isoform 2 (UniProt Q13510)
inactive: [1] 0.022 | [9] 0.005 | [2] 0.041 | [10] 0.048 | [3] -0.014 | [4] 0.056 | [5] 0.017 | [6] -0.112 | [7] -0.03 | [8] -0.052

ARRDC1 (UniProt Q8N5I2)
inactive: [1] -0.061 | [9] 0 | [2] 0.071 | [3] 0.021 | [4] 0.048 | [5] 0.039 | [6] 0.023 | [7] 0.136 | [8] -0.179

ATG12 (UniProt O94817)
inactive: [1] 0.008 | [2] 0.017 | [10] 0.039 | [3] -0.099 | [4] -0.046 | [5] 0.03 | [6] 0.059 | [7] -0.006 | [8] -0.021

ATG2A (UniProt Q2TAZ0)
inactive: [10] 0.025 | [3] 0.256
